Assay results from article PMC10044640 (Antibiotics, 2023).

Test: general procedure: Fmoc solid-phase peptide synthesis; H-His(Trt)-2-ClTrt resin, loading 0.71 mmol g-1, or Fmoc-Arg(Pbf)-Wang resin, loading 0.59 mmol g-1
Conditions: whole synthesis, HCl salt; for purity (crude or final not stated) / final HPLC purity: 214 nm; for purity (crude or final not stated) / final HPLC purity / isolated yield: scale of the general procedure 100 mg resin per peptide

| Substance | purity (crude or final not stated) [%] | final HPLC purity [%] | isolated mass [mg] | isolated yield [%] |
| --- | --- | --- | --- | --- |
| H-Glu-Ser-Arg-Leu-His-OH | >95 |  |  |  |
| H-Thr-Ser-His-Leu-Arg-OH | 93 |  |  |  |
| H-Thr-Tyr-His-Leu-His-OH |  | >95 | 26.8 | 49 |
| H-Glu-Ser-Arg-Ile-His-OH | >95 |  |  |  |
| H-Thr-Tyr-Arg-Leu-Arg-OH | 82 |  |  |  |
| H-Thr-Ser-His-Leu-His-OH |  | >95 | 14.1 | 28 |
| H-Glu-Ser-His-Ile-His-OH | >95 |  |  |  |
| H-Glu-Thr-His-Ile-His-OH | >95 |  |  |  |
| H-Thr-Thr-His-Ile-Arg-OH | 82 |  |  |  |
| H-Glu-Tyr-Arg-Ile-Arg-OH | 90 |  |  |  |
